Results: PMC6985666
Results are given in words; binding and its absence hold for the method and conditions named. Binding seen in cells or lysates may run through a third protein. Some results given as binding are weak or reduced against the parent protein; the word gives no strength.

What was measured:
[1] = target: ATP1A3 (Na+/K+-ATPase alpha 3 subunit) (human (endogenous in U87)) (UniProt P13637); assay: co-IP; U87 cell extracts (400 ug), precleared with normal rabbit IgG and protein A/G-agarose; IP with mouse anti-ATP1A3 at 4 C for 5-6 h, blot with anti-ATP1A3 and anti-AQP4; reciprocal IP of AQP4 with blot for ATP1A3
[2] = target: aquaporin-4 (AQP4) (human (endogenous in U87)) (UniProt P55087); assay: as above
[3] = target: ATP1A3 of normal astrocytes (UniProt P13637); assay: co-IP; extracts of normal astrocytes; immunoprecipitation and immunoblotting (Figure 3C, left panel)

In the case of “aquaporin-4 (AQP4) (from UniProt P55087 1-323)”, the binding [1] is reported as “binds”.
“ATP1A3 (Na+/K+-ATPase alpha 3 subunit) (from UniProt P13637 1-1013)” was tested, and the binding [2] was “binds”.
In the case of “AQP4 of normal astrocytes (from UniProt P55087 1-323)”, the binding [3] is reported as “binds”.
